Paper PMC6933324

Key:
Assay in all cases: co-IP; Flag-tagged FL or mutant BAG3 immunoprecipitated from HEK293 lysate (20 mmol/L Tris-HCl, 150 mmol/L NaCl, 2 mmol/L EDTA, 1% Triton-X100; protein A/G magnetic beads, overnight at 4°C); blot for p53
[1] = target: Flag-tagged mutant BAG3 without BAG domain (human) (UniProt O95817)
[2] = target: Flag-tagged mutant BAG3 without PxxP domain (human) (UniProt O95817)
[3] = target: Flag-tagged mutant BAG3 without WW domain (human) (UniProt O95817)

binding [1]: no binding
binding [2]: binds
binding [3]: binds
Substance: Myc-tagged full-length (FL) p53 (from UniProt P04637 1-393)

These are yes or no findings as the source states them, for the method shown. In cells and extracts the contact can be indirect. For part of these data: Binding can be weak; no strength is given.
